Results taken from patent KR20150077891A.
No constants are given. Whether binding was seen depends on the method and setting. Some results given as binding are weak or reduced against the parent protein; the word gives no strength.

Legend:
[1] = biological target: T1, WRS (tryptophanyl-tRNA synthetase), purified recombinant antigen / standard (human) (UniProt P23381); assay: phage panning on immobilised WRS followed by clone screening
T1 sequence (looked up): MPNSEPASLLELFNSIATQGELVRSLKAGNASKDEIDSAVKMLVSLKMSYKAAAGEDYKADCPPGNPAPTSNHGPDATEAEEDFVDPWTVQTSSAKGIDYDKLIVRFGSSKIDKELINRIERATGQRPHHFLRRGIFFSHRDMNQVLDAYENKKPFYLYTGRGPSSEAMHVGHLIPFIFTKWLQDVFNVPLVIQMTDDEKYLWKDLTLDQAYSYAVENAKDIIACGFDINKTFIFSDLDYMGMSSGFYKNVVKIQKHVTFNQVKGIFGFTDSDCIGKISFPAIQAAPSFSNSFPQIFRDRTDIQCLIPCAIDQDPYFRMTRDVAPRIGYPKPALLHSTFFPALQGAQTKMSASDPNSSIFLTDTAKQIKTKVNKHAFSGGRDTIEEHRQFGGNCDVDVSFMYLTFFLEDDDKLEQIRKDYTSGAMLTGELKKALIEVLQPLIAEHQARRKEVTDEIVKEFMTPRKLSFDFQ

[2] = biological target: T1, WRS (tryptophanyl-tRNA synthetase), purified recombinant antigen / standard (human); assay: sandwich ELISA, scFv coated as capture, rabbit polyclonal anti-WRS as detection
[3] = biological target: T1, WRS (tryptophanyl-tRNA synthetase), purified recombinant antigen / standard (human); assay: Luminex multiplex bead assay, WRS coupled to beads, anti-HA-biotin / SA-PE detection
[4] = biological target: T1, WRS (tryptophanyl-tRNA synthetase), purified recombinant antigen / standard (human); assay: sandwich ELISA, scFv coated at 100-400 ng/well as capture, rabbit polyclonal anti-WRS (4 ug/ml) as detection, OD450

Measured: binding

B1: anti-WRS scFv Biocon-W1 (scFv, not shown: small tags and cut ends)
scFv: EVQLLESGGGLVQPGGSLRLSCAASGLAFSDYYMSWVRLAPGKGLEWVSVISPGSGSKYYADSVRGRFTVSRDNSKNTLYLQMNSLRAEDTAVYYCARKNQAFDYWGQGTLVTVSSGGGGSGGGGSGGGGSQSVLTQPPSASGTPGQRVTISCTGSSSNIGSNYVTWYQQLPGTAPKLLIYANSQRPSGVPDRFSGSKSGTSASLAISGLRSEDEADYYCASWDASLSGYVFGGGTKLTVL
binds: all assays above
